Measured values: patent US20200207867A1
These are yes or no findings as the source states them, for the method shown. Some results given as binding are weak or reduced against the parent protein; the word gives no strength.

The chains behind the UniProt entries cited, without tags or fusion partners.
UniProt P28907: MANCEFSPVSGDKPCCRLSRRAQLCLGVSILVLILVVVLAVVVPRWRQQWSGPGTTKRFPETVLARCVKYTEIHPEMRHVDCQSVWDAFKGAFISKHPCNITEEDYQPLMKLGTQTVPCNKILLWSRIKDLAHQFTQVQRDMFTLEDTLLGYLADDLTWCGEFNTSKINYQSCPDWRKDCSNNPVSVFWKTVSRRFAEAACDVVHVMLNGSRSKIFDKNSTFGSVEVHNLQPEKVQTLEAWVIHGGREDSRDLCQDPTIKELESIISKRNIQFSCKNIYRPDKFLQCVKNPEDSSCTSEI

Legend:
[1] = molecular target: human CD38 on Ramos cells (CD38-positive Burkitt's lymphoma cell line) (human) (UniProt P28907); test: stated with the CDC experiment of FIG. 25
[2] = molecular target: human CD38 on Ramos cells (CD38-positive Burkitt's lymphoma cell line) (human) (UniProt P28907); test: stated with the CDC experiment of FIG. 25 (figure legend)
[3] = molecular target: human CD38 on Ramos cells (CD38-positive Burkitt's lymphoma cell line) (human) (UniProt P28907); test: flow cytometry on Ramos cells pre-treated with Daratumumab or Isatuximab
[4] = molecular target: human CD38 on Ramos cells (CD38-positive Burkitt's lymphoma cell line) (human) (UniProt P28907); test: flow cytometry on Ramos cells pre-treated with Daratumumab or Isatuximab (figure legend)
[5] = molecular target: human CD38 on Ramos cells (CD38-positive Burkitt's lymphoma cell line) (human) (UniProt P28907); test: inferred from CDC on Ramos cells with Daratumumab
[6] = molecular target: human CD38 on Ramos cells (CD38-positive Burkitt's lymphoma cell line) (human) (UniProt P28907); test: inferred from CDC on Ramos cells with Daratumumab (figure legend)

binding [1] | binding [2] | binding [3] | binding [4] | binding [5] | binding [6] | Binder
binds | binds | – | – | – | – | UniAb 309021 (anti-CD38 heavy chain-only antibody, IgG1 UniAb format) (antibody, V domains shown) VH: QLQLQESGPGLVKPSETLALTCNVSGGSISSSSYYWGWIRQPPGKRLEWIGSIYYSGSTYFNPSLKSRVTISVDTSKNQFSLKLSSVTAADTAVYYCAGGDYYGPVGQWPSDYRGQGTLVTVSS
binds | binds | binds | binds | – | – | UniAb 309407 (anti-CD38 heavy chain-only antibody, family F03, IgG1 UniAb format) (antibody, V domains shown) VH: EVQLLESGGGLVQPGGSLRLSCAASGFIFSSYAMSWVRQAPGKGQEWVSGVSGTGVNTYYADSVKGRFTISRDNSKNTLYLQMNSLRAEDTAVYYCASGKGWDSGSWYEDYRGQGTLVTVSS
– | – | – | – | binds | binds | UniAb 309407 on a human IgG4 background (antibody, V domains shown) VH: EVQLLESGGGLVQPGGSLRLSCAASGFIFSSYAMSWVRQAPGKGQEWVSGVSGTGVNTYYADSVKGRFTISRDNSKNTLYLQMNSLRAEDTAVYYCASGKGWDSGSWYEDYRGQGTLVTVSS
